Assay results reported in patent publication US20250283871A1, “COMPOSITIONS AND METHODS FOR MODULATING THE INTERACTION BETWEEN SS18-SSX FUSION ONCOPROTEIN AND NUCLEOSOMES” (Dana-Farber Cancer Institute, Inc., priority 2020, published 2025).

Tested on: BAF complex subunits and histone proteins
Test: Mass spectrometry proteomics of purified HA-SS18 WT and HA-SS18-SSX1 complexes (Tables 5A-5E)
Parameters: species or system human
Settings: for Total (total peptides) / Unique (unique peptides): HA-SS18SSX1_CHR_peptides: protein identified in the HA-SS18-SSX1 purification from solubilized chromatin (CHR)
[1] = HA-SS18WT_CHR_peptides: HA-SS18 WT purification from nuclease-treated solubilized chromatin (CHR), HEK-293T, label = protein identified
[2] = HA-SS18SSX1_CHR_peptides: proteins found in HA-SS18-SSX1 BAF complex purification from solubilized chromatin (CHR), HEK-293T
[3] = HA-SS18SSX1_NE_peptides: protein co-purified with HA-SS18-SSX1 BAF complexes from soluble nuclear extract (NE), HEK-293T cells
[4] = HA-SS18WT_NE_peptides: HA-SS18 WT complexes purified from nuclear extract (NE), HEK-293T, label = protein identified (Gene Symbol)

Molecule | Total (total peptides) (HEK-293T) | Unique (unique peptides) (HEK-293T) | Total (peptides) [1] | Unique (peptides) [1] | Total (peptides) [2] | Unique (peptides) [2] | Total (peptides) [3] | Unique (peptides) [3] | Total (peptides) [4] | Unique (peptides) [4]
WDR46 (protein, UniProt O15213 1-610, looked up) WD repeat-containing protein …: METAPKPGKDVPPKKDKLQTKRKKPRRYWEEETVPTTAGASPGPPRNKKNRELRPQRPKNAYILKKSRISKKPQVPKKPREWKNPESQRGLSGTQDPFPGPAPVPVEVVQKFCRIDKSRKLPHSKAKTRSRLEVAEAEEEETSIKAARSELLLAEEPGFLEGEDGEDTAKICQADIVEAVDIASAAKHFDLNLRQFGPYRLNYSRTGRHLAFGGRRGHVAALDWVTKKLMCEINVMEAVRDIRFLHSEALLAVAQNRWLHIYDNQGIELHCIRRCDRVTRLEFLPFHFLLATASETGFLTYLDVSVGKIVAALNARAGRLDVMSQNPYNAVIHLGHSNGTVSLWSPAMKEPLAKILCHRGGVRAVAVDSTGTYMATSGLDHQLKIFDLRGTYQPLSTRTLPHGAGHLAFSQRGLLVAGMGDVVNIWAGQGKASPPSLEQPYLTHRLSGPVHGLQFCPFEDVLGVGHTGGITSMLVPGAGEPNFDGLESNPYRSRKQRQEWEVKALLEKVPAELICLDPRALAEVDVISLEQGKKEQIERLGYDPQAKAPFQPKPKQKGRSSTASLVKRKRKVMDEEHRDKVRQSLQQQHHKEAKAKPTGARPSALDRFVR | 8 | 8 | 3 | 3 |  |  |  |  |  | 
MYO1C (protein, UniProt O00159 1-1063, looked up) Unconventional myosin-Ic: MALQVELVPTGEIIRVVHPHRPCKLALGSDGVRVTMESALTARDRVGVQDFVLLENFTSEAAFIENLRRRFRENLIYTYIGPVLVSVNPYRDLQIYSRQHMERYRGVSFYEVPPHLFAVADTVYRALRTERRDQAVMISGESGAGKTEATKRLLQFYAETCPAPERGGAVRDRLLQSNPVLEAFGNAKTLRNDNSSRFGKYMDVQFDFKGAPVGGHILSYLLEKSRVVHQNHGERNFHIFYQLLEGGEEETLRRLGLERNPQSYLYLVKGQCAKVSSINDKSDWKVVRKALTVIDFTEDEVEDLLSIVASVLHLGNIHFAANEESNAQVTTENQLKYLTRLLSVEGSTLREALTHRKIIAKGEELLSPLNLEQAAYARDALAKAVYSRTFTWLVGKINRSLASKDVESPSWRSTTVLGLLDIYGFEVFQHNSFEQFCINYCNEKLQQLFIELTLKSEQEEYEAEGIAWEPVQYFNNKIICDLVEEKFKGIISILDEECLRPGEATDLTFLEKLEDTVKHHPHFLTHKLADQRTRKSLGRGEFRLLHYAGEVTYSVTGFLDKNNDLLFRNLKETMCSSKNPIMSQCFDRSELSDKKRPETVATQFKMSLLQLVEILQSKEPAYVRCIKPNDAKQPGRFDEVLIRHQVKYLGLLENLRVRRAGFAYRRKYEAFLQRYKSLCPETWPTWAGRPQDGVAVLVRHLGYKPEEYKMGRTKIFIRFPKTLFATEDALEVRRQSLATKIQAAWRGFHWRQKFLRVKRSAICIQSWWRGTLGRRKAAKRKWAAQTIRRLIRGFVLRHAPRCPENAFFLDHVRTSFLLNLRRQLPQNVLDTSWPTPPPALREASELLRELCIKNMVWKYCRSISPEWKQQLQQKAVASEIFKGKKDNYPQSVPRLFISTRLGTDEISPRVLQALGSEPIQYAVPVVKYDRKGYKPRSRQLLLTPNAVVIVEDAKVKQRIDYANLTGISVSSLSDSLFVLHVQRADNKQKGDVVLQSDHVIETLTKTALSANRVNSININQGSITFAGGPGRDGTIDFTPGSELLITKAKNGHLAVVAPRLNSR | 8 | 8 | 6 | 5 | 1 | 1 | 2 | 2 | 8 | 8
STAG2 (protein, UniProt Q8N3U4 1-1231, looked up) Cohesin subunit SA-2: MIAAPEIPTDFNLLQESETHFSSDTDFEDIEGKNQKQGKGKTCKKGKKGPAEKGKGGNGGGKPPSGPNRMNGHHQQNGVENMMLFEVVKMGKSAMQSVVDDWIESYKHDRDIALLDLINFFIQCSGCKGVVTAEMFRHMQNSEIIRKMTEEFDEDSGDYPLTMAGPQWKKFKSSFCEFIGVLVRQCQYSIIYDEYMMDTVISLLTGLSDSQVRAFRHTSTLAAMKLMTALVNVALNLSINMDNTQRQYEAERNKMIGKRANERLELLLQKRKELQENQDEIENMMNAIFKGVFVHRYRDAIAEIRAICIEEIGIWMKMYSDAFLNDSYLKYVGWTMHDKQGEVRLKCLTALQGLYYNKELNSKLELFTSRFKDRIVSMTLDKEYDVAVQAIKLLTLVLQSSEEVLTAEDCENVYHLVYSAHRPVAVAAGEFLYKKLFSRRDPEEDGMMKRRGRQGPNANLVKTLVFFFLESELHEHAAYLVDSMWDCATELLKDWECMNSLLLEEPLSGEEALTDRQESALIEIMLCTIRQAAECHPPVGRGTGKRVLTAKEKKTQLDDRTKITELFAVALPQLLAKYSVDAEKVTNLLQLPQYFDLEIYTTGRLEKHLDALLRQIRNIVEKHTDTDVLEACSKTYHALCNEEFTIFNRVDISRSQLIDELADKFNRLLEDFLQEGEEPDEDDAYQVLSTLKRITAFHNAHDLSKWDLFACNYKLLKTGIENGDMPEQIVIHALQCTHYVILWQLAKITESSSTKEDLLRLKKQMRVFCQICQHYLTNVNTTVKEQAFTILCDILMIFSHQIMSGGRDMLEPLVYTPDSSLQSELLSFILDHVFIEQDDDNNSADGQQEDEASKIEALHKRRNLLAAFCKLIVYTVVEMNTAADIFKQYMKYYNDYGDIIKETMSKTRQIDKIQCAKTLILSLQQLFNEMIQENGYNFDRSSSTFSGIKELARRFALTFGLDQLKTREAIAMLHKDGIEFAFKEPNPQGESHPPLNLAFLDILSEFSSKLLRQDKRTVYVYLEKFMTFQMSLRREDVWLPLMSYRNSLLAGGDDDTMSVISGISSRGSTVRSKKSKPSTGKRKVVEGMQLSLTEESSSSDSMWLSREQTLHTPVMMQTPQLTSTIMREPKRLRPEDSFMSVYPMQTEHHQTPLDYNRRGTSLMEDDEEPIVEDVMMSSEGRIEDLNEGMDFDTMDIDLPPSKNRRERTELKPDFFDPASIMDESVLGVSMF | 8 | 8 | 6 | 6 |  |  |  |  |  | 
DNTTIP2 (protein, UniProt Q5QJE6 1-756, looked up) Deoxynucleotidyltransferase …: MVVTRSARAKASIQAASAESSGQKSFAANGIQAHPESSTGSDARTTAESQTTGKQSLIPRTPKARKRKSRTTGSLPKGTEPSTDGETSEAESNYSVSEHHDTILRVTRRRQILIACSPVSSVRKKPKVTPTKESYTEEIVSEAESHVSGISRIVLPTEKTTGARRSKAKSLTDPSQESHTEAISDAETSSSDISFSGIATRRTRSMQRKLKAQTEKKDSKIVPGNEKQIVGTPVNSEDSDTRQTSHLQARSLSEINKPNFYNNDFDDDFSHRSSENILTVHEQANVESLKETKQNCKDLDEDANGITDEGKEINEKSSQLKNLSELQDTSLQQLVSQRHSTPQNKNAVSVHSNLNSEAVMKSLTQTFATVEVGRWNNNKKSPIKASDLTKFGDCGGSDDEEESTVISVSEDMNSEGNVDFECDTKLYTSAPNTSQGKDNSVLLVLSSDESQQSENSENEEDTLCFVENSGQRESLSGDTGSLSCDNALFVIDTTPGMSADKNFYLEEEDKASEVAIEEEKEEEEDEKSEEDSSDHDENEDEFSDEEDFLNSTKAKLLKLTSSSIDPGLSIKQLGGLYINFNADKLQSNKRTLTQIKEKKKNELLQKAVITPDFEKNHCVPPYSESKYQLQKKRRKERQKTAGDGWFGMKAPEMTNELKNDLKALKMRASMDPKRFYKKNDRDGFPKYFQIGTIVDNPADFYHSRIPKKQRKRTIVEELLADSEFRRYNRRKYSEIMAEKAANAAGKKFRKKKKFRN | 8 | 8 | 7 | 5 |  |  |  |  |  | 
